In PubChem BioAssay AID2685 (National Center for Advancing Translational Sciences (NCATS), 2010):
The other results are listed elsewhere or left out. The main result of the screen is listed elsewhere. These columns were measured beside it and carry no call. The list favours compounds with an active or inconclusive main result. Words in brackets tell the shape of the fitted curve; partial curves, single points and poor fits give uncertain potencies.

Assay: qHTS Assay for Lipid Storage Modulators in Drosophila S3 Cells;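 for cell number change: cells counted by Cell Tracker Red CMTPX staining in the red channel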
Conditions: BODIPY lipid droplet fluorescence, 18-24 h; for cell number change: measured here: cell count max response, cells fed with added oleic acid
Outline: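 Drosophila S3 cells got compounds at several concentrations plus oleic acid (400 uM solution). Laser-scanning cytometry with 488 nm excitation read lipid droplets at 500-530 nm and cells at 575-640 nm. Percent activity was relative to 20 uM Triacsin C.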

[1] = measured here: cell number channel AC50, cells fed with added oleic acid
[2] = measured here: lipid fluorescence (Fed channel) AC50, cells fed with added oleic acid

| SMILES | cell number change | AC50 [1] | AC50 [2] |
| --- | --- | --- | --- |
| Cc1cc(C)n(S(=O)(=O)c2ccc(Cl)c(Cl)c2Cl)n1 | 56.4% | 5.17 µM [rising, partial curve] | 7.31 µM [rising, partial curve] |
| COc1ccc(/C=N/OCC(=O)NCC(C)C)c(OC)c1 | 5.68% | 1.84 µM [falling, partial curve] | 1.46 µM [falling, partial curve] |
| CC(C)(C)Nc1nc(Cl)nc(NCCN2CCOCC2)n1 | 24.4% | – | 6.51 µM [rising, partial curve, poor fit] |
| CCOc1ccc2nc(N/C(N)=N/S(C)(=O)=O)nc(C)c2c1 | 3.21% | – | 4.11 µM [falling, full curve, poor fit] |
| Oc1ccc(/C=N/Nc2nc(N3CCCC3)nc(N3CCCC3)n2)cc1O | -10.7% | – | – |
| CCOc1ccc(NC(=O)CSC2=NCCN2)cc1 | 16.7% | 4.61 µM [falling, single point] | – |
| O=C(CN1CCN(S(=O)(=O)N2CCCCC2)CC1)Nc1cc(Cl)ccc1Cl | 32% | 5.8 µM [rising, full curve, poor fit] | – |
| O=C(CNC(=S)N(Cc1ccccc1F)C1CCCCC1)NCCCN1CCOCC1 | -67.7% | 0.82 µM [falling, full curve] | 13 µM [falling, partial curve, poor fit] |
| Cc1ccc(C=C2C(=O)c3ccccc3C2=O)s1 | – | 6.51 µM [rising, single point] | – |
| N#Cc1sc2nc3c(c(-c4ccco4)c2c1N)CCCC3 | 88.8% | 29.1 µM [rising, single point] | 2.59 µM [rising, single point] |
| O=C(CN1C(=O)NC2(CCc3ccccc32)C1=O)c1ccc(Cl)cc1 (stereo unspecified) | 17.4% | – | 32.6 µM [rising, single point] |
| O=C(Nc1ccc(C(F)(F)F)cc1)N1CCN(c2ccnc3cc(Cl)ccc23)CC1 | 12% | 0.731 µM [rising, single point] | 8.2 µM [falling, single point] |
| O=[N+]([O-])c1ccc(CNCc2cc(Cl)ccc2O)cc1 | -40% | 9.2 µM [falling, partial curve] | 0.164 µM [rising, full curve] |
| Cc1cc(C(=O)N2CCN(c3cccc(Cl)c3)CC2)c(C)o1 | 105% | 14.6 µM [rising, partial curve] | 1.3 µM [rising, full curve] |
| Cn1c(NC(=O)Cc2ccc(F)cc2)cc(=O)n(C)c1=O | 54.1% | 29.1 µM [rising, single point] | – |
| Cc1ccc2c(c1)c(-c1csc(N)n1)c(C)n2C | 31.1% | 0.184 µM [rising, full curve, poor fit] | 29.1 µM [rising, single point] |
| CNC(=O)c1ccsc1NC(=O)C1CCCN1S(=O)(=O)c1cccs1 (stereo unspecified) | 78.3% | 1.64 µM [rising, full curve] | – |
| CC(C)(C)NC(=O)CN(C(=O)Cn1nnc(-c2ccc(Cl)cc2)n1)C1CCN(Cc2ccccc2)CC1 | -24.5% | – | 29.1 µM [falling, single point] |
| Cc1ccc(C)c(NC(=O)CSc2nnc([C@@H](N)Cc3ccccc3)o2)c1 | – | – | 0.0058 µM [rising, full curve] |
| CC1(C)C(=O)OC(/C=C\c2cccc([N+](=O)[O-])c2)C(C)(C)C1=O (stereo unspecified) | 6.62% | – | – |
| COc1ccccc1CNC(=O)c1cnn2c(C(F)F)cc(C)nc12 | – | – | 14.6 µM [rising, partial curve] |

Random excerpt: four compounds from above, in no set order.

| SMILES | cell number change | AC50 [1] | AC50 [2] |
| --- | --- | --- | --- |
| Cc1ccc(C)c(NC(=O)CSc2nnc([C@@H](N)Cc3ccccc3)o2)c1 | – | – | 0.0058 µM [rising, full curve] |
| CNC(=O)c1ccsc1NC(=O)C1CCCN1S(=O)(=O)c1cccs1 (stereo unspecified) | 78.3% | 1.64 µM [rising, full curve] | – |
| CCOc1ccc(NC(=O)CSC2=NCCN2)cc1 | 16.7% | 4.61 µM [falling, single point] | – |
| O=C(CNC(=S)N(Cc1ccccc1F)C1CCCCC1)NCCCN1CCOCC1 | -67.7% | 0.82 µM [falling, full curve] | 13 µM [falling, partial curve, poor fit] |

(list continues)

| SMILES | cell number change | AC50 [1] | AC50 [2] |
| --- | --- | --- | --- |
| Cn1c(CSc2ncccn2)nnc1SCC(=O)N1CCCC1 | 5.8% | 0.13 µM [rising, full curve, poor fit] | – |
| O=C(O)c1ccc(CSc2nnc(-c3ccc(Cl)cc3)o2)cc1 | 12.2% | – | 0.0651 µM [rising, full curve, poor fit] |
| CC1CN(C(=O)CSc2ncnc3sccc23)CC(C)O1 (stereo unspecified) | -0.334% | – | 14.6 µM [rising, single point] |
| COc1ccc(NC(=O)COC(=O)C2C3CC4OC(=O)C2C4C3)cc1 (stereo unspecified) | -8.97% | – | 0.184 µM [rising, full curve, poor fit] |
| Cc1ccc(C)n1/N=C1/NC(=O)CS1 | 8.08% | – | – |
| C#CC[N+](C)(C)CCCCCCCC | -11.4% | 6.51 µM [rising, partial curve, poor fit] | – |
| COc1cccc(/C=N/NC(=O)c2cc3cc([N+](=O)[O-])ccc3s2)c1O | -73.7% | 29.1 µM [falling, single point] | – |
| O=C1C(=C(O)c2ccccc2)C(=O)c2ccccc21 | -27.5% | – | 29.1 µM [falling, single point] |
| CCN(C(=O)Cn1c(=O)oc2cc(S(=O)(=O)N3CCCC3)ccc21)c1ccc(OC)cc1 | 6.89% | – | 6.51 µM [rising, single point] |
| O=C1C2=C(Nc3ccccc3SC2c2ccco2)c2ccccc21 (stereo unspecified) | -33.4% | 29.1 µM [falling, single point] | – |
| Cc1ccc2[nH]c(SCC(=O)N3CCOCC3)nc2c1C | 38.5% | 10.3 µM [rising, partial curve, poor fit] | 6.51 µM [rising, single point] |
| O=C(N/N=C/C(Cl)=C\c1ccccc1)c1cnccn1 | 23.1% | – | – |
| c1ccc(CCN2CCN=C2Nc2ccccc2)cc1 | -11.7% | – | 0.461 µM [falling, full curve] |
| COC(=O)c1ccc(C23CC4(C2)[C@H](CN(Cc2cccnc2)[C@@H]4c2ccccc2)C3c2ccc(Cl)nc2)cc1 (stereo partly specified) | 12.3% | – | 2.59 µM [rising, full curve, poor fit] |
| CC(C)c1ccc(S(=O)(=O)N2CCN(C(=O)c3ccc(N4CCCC4)c([N+](=O)[O-])c3)CC2)cc1 | 10.3% | – | 0.58 µM [falling, single point] |
| CCc1ccc(N(CC(=O)NC)S(C)(=O)=O)cc1 | -14.8% | – | 14.6 µM [falling, partial curve] |
| CCOc1ncccc1C(=O)OCC(=O)NC1CCCCCC1 | – | 0.231 µM [rising, full curve] | – |
| CC(C)N(Cc1ccccc1)C(=O)COC(=O)c1cnccn1 | -46% | 0.206 µM [falling, full curve, poor fit] | – |
| O=C1CC(C(=O)N2CCN(c3ccccc3O)CC2)CN1Cc1ccccc1 (stereo unspecified) | -9.93% | – | 10.3 µM [rising, partial curve] |
| Nc1ccc2nc(CCc3ccccc3)[nH]c2c1 | 9.5% | – | – |
| CCN(CC)C(=O)CSc1nnc([C@@H](N)Cc2ccccc2)o1 | -19.3% | – | 3.66 µM [falling, single point] |

| SMILES | cell number change | AC50 [1] | AC50 [2] |
| --- | --- | --- | --- |
| COc1ccc(Cc2nc3ccc(C(=O)NCCn4cccn4)cc3o2)cc1 | 19% | – | 29.1 µM [rising, single point] |
| COc1ccc(NC(=S)Nc2cccc(Cl)c2Cl)cc1OC | – | 2.06 µM [rising, partial curve, poor fit] | – |
| Cc1ccc(CNC(=O)CS(=O)Cc2nc(-c3ccccc3C)oc2C)cc1 (stereo unspecified) | 79.2% | 20.6 µM [rising, single point] | 0.82 µM [rising, single point] |
| CCn1cc(S(=O)(=O)CC(=O)Nc2cc(C)on2)c2ccccc21 | -16% | – | 0.82 µM [falling, full curve, poor fit] |
| Cc1ccccc1NC(=O)c1cc(S(=O)(=O)N2CCOCC2)cs1 | -5.36% | – | 1.3 µM [rising, partial curve] |
| Cc1cccc(COc2ccccc2/C=N/Nc2ccc([N+](=O)[O-])cc2)c1 | 11.9% | – | 6.51 µM [rising, single point] |
| CC(CCc1ccccc1)NC(=O)CNC(=O)c1ccccc1Br (stereo unspecified) | -15.1% | – | 0.58 µM [rising, single point] |
| COc1cccc(CNC(=O)CCN2C(=S)NC(C)(C)CC2C)c1 (stereo unspecified) | -32.4% | 32.6 µM [falling, single point] | 29.1 µM [falling, single point] |
| COCCNC(=O)/C(C#N)=C/C(C)=C/c1ccccc1 | 20% | – | 23.1 µM [falling, single point] |
| CC1Cc2ccccc2N1C1=CC(=O)CCC1 (stereo unspecified) | 34.3% | – | – |
| CCCc1nc(N)c(C#N)c(-c2cccnc2)c1CC | 2.04% | – | 0.116 µM [rising, full curve, poor fit] |
| O=c1c2[nH]c3ccccc3c2ncn1Cc1cccnc1 | -12.9% | – | 0.731 µM [falling, single point] |
| CCN1CCN(C(CC(C)C)c2nnnn2CS(=O)(=O)c2ccc(C)cc2)CC1 (stereo unspecified) | -31.7% | 25.9 µM [falling, partial curve] | – |
| Cc1nnsc1NC(=O)OCc1ccc(Cl)cc1Cl | – | – | 32.6 µM [rising, single point] |
| CCc1nnc(NC(=O)CCC(=O)N2CCN(c3cccc(Cl)c3)CC2)s1 | 15.5% | – | – |
| COc1cc2c(cc1OC)C(c1ccsc1)CC(=O)N2 (stereo unspecified) | 13.3% | – | 29.1 µM [rising, single point] |
| Cc1cc(NC(=O)CSCC(=O)OCC(=O)Nc2cc(C)c(C)cc2[N+](=O)[O-])no1 | -14.7% | – | 2.06 µM [falling, partial curve, poor fit] |
| O=C(Oc1ccccc1C(=O)Nc1ccccc1)c1ccc(Br)c([N+](=O)[O-])c1 | -39.2% | 3.66 µM [falling, partial curve] | 2.91 µM [falling, full curve] |
| CC(Oc1ccc(C#N)cc1)C(=O)NC1CCCC1 (stereo unspecified) | -13.4% | – | 1.46 µM [falling, partial curve, poor fit] |
